From article doi:10.1101/178822
These are yes or no findings as the source states them, for the method shown. Binding seen in cells or lysates may run through a third protein. Some results given as binding are weak or reduced against the parent protein; the word gives no strength.

Biological target: T1, Protocadherin 19 (UniProt Q8TAB3)
T1 sequence: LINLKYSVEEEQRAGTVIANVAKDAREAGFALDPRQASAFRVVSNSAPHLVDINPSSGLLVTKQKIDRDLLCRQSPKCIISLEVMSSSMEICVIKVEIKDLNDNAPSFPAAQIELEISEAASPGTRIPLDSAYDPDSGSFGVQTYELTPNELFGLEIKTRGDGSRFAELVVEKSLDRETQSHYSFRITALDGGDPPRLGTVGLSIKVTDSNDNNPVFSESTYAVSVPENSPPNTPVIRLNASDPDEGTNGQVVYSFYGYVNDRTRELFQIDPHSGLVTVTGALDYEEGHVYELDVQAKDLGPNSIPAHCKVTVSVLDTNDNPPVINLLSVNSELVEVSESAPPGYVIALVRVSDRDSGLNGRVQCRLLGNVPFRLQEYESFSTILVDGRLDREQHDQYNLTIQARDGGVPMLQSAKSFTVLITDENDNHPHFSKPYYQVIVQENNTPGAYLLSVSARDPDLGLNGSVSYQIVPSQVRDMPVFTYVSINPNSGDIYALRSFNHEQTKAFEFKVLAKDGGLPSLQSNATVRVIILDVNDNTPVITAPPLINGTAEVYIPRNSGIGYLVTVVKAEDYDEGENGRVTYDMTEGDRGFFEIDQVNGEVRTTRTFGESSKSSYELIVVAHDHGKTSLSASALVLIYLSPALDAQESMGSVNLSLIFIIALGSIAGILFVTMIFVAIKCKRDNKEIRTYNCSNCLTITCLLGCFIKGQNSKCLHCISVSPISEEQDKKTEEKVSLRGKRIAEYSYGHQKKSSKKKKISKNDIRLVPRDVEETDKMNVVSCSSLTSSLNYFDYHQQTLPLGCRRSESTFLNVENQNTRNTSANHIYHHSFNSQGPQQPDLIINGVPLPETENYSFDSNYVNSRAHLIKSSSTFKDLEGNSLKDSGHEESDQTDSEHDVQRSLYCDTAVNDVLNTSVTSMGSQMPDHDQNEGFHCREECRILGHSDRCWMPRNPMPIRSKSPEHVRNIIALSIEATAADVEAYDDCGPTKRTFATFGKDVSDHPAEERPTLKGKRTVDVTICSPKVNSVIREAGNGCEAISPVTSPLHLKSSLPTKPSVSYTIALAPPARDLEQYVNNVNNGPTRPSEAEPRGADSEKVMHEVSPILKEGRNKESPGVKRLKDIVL
Test: co-IP

binding: binds
B1: PCDH10 (protein, UniProt Q9P2E7 19-1040)
chain: QLHYTVQEEQEHGTFVGNIAEDLGLDITKLSARGFQTVPNSRTPYLDLNLETGVLYVNEKIDREQICKQSPSCVLHLEVFLENPLELFQVEIEVLDINDNPPSFPEPDLTVEISESATPGTRFPLESAFDPDVGTNSLRDYEITPNSYFSLDVQTQGDGNRFAELVLEKPLDREQQAVHRYVLTAVDGGGGGGVGEGGGGGGGAGLPPQQQRTGTALLTIRVLDSNDNVPAFDQPVYTVSLPENSPPGTLVIQLNATDPDEGQNGEVVYSFSSHISPRARELFGLSPRTGRLEVSGELDYEESPVYQVYVQAKDLGPNAVPAHCKVLVRVLDANDNAPEISFSTVKEAVSEGAAPGTVVALFSVTDRDSEENGQVQCELLGDVPFRLKSSFKNYYTIVTEAPLDREAGDSYTLTVVARDRGEPALSTSKSIQVQVSDVNDNAPRFSQPVYDVYVTENNVPGAYIYAVSATDRDEGANAQLAYSILECQIQGMSVFTYVSINSENGYLYALRSFDYEQLKDFSFQVEARDAGSPQALAGNATVNILIVDQNDNAPAIVAPLPGRNGTPAREVLPRSAEPGYLLTRVAAVDADDGENARLTYSIVRGNEMNLFRMDWRTGELRTARRVPAKRDPQRPYELVIEVRDHGQPPLSSTATLVVQLVDGAVEPQGGGGSGGGGSGEHQRPSRSGGGETSLDLTLILIIALGSVSFIFLLAMIVLAVRCQKEKKLNIYTCLASDCCLCCCCCGGGGSTCCGRQARARKKKLSKSDIMLVQSSNVPSNPAQVPIEESGGFGSHHHNQNYCYQVCLTPESAKTDLMFLKPCSPSRSTDTEHNPCGAIVTGYTDQQPDIISNGSILSNETKHQRAELSYLVDRPRRVNSSAFQEADIVSSKDSGHGDSEQGDSDHDATNRAQSAGMDLFSNCTEECKALGHSDRCWMPSFVPSDGRQAADYRSNLHVPGMDSVPDTEVFETPEAQPGAERSFSTFGKEKALHSTLERKELDGLLTNTRAPYKPPYLTRKRIC
